The target of one test is USP5 (recombinant) (UniProt P45974). The test can be described thus: covalent labelling by an activity-based probe (SDS-PAGE); labelling of USP5 by hISG15FL- and mISG15CTD-based probes (Supplementary Fig. 1B); conditions not shown.
Test [1] deals with T1, His6-Hs.USP18 (16-372) (human) (UniProt Q9UMW8).
T1 sequence: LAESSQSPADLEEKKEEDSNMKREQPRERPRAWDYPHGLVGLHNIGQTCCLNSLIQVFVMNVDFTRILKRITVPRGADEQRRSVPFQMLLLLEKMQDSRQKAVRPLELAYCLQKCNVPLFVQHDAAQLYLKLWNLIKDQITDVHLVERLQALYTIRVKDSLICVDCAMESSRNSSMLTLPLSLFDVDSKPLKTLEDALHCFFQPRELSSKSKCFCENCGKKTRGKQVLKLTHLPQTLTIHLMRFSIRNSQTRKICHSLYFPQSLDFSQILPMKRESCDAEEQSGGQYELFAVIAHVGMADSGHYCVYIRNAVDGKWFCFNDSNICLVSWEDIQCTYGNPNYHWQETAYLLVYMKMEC
The test is described as follows: SPR; BIAcore 3000; mouse and human USP18 immobilised via the N-terminal His6 tag on an NTA chip; 25 °C; 50 mM HEPES, 150 mM NaCl, 0.05 mM EDTA, 0.5 mM DTT, 0.01% P20, pH 7.5; 20 μL/min; Langmuir 1:1 model with drift; both purified. In general terms: SPR reads the build-up and loss of mass on a sensor chip optically.

Amino acid sequences for entries named in this document (tags omitted). Residues count along the entry.
UniProt P45974: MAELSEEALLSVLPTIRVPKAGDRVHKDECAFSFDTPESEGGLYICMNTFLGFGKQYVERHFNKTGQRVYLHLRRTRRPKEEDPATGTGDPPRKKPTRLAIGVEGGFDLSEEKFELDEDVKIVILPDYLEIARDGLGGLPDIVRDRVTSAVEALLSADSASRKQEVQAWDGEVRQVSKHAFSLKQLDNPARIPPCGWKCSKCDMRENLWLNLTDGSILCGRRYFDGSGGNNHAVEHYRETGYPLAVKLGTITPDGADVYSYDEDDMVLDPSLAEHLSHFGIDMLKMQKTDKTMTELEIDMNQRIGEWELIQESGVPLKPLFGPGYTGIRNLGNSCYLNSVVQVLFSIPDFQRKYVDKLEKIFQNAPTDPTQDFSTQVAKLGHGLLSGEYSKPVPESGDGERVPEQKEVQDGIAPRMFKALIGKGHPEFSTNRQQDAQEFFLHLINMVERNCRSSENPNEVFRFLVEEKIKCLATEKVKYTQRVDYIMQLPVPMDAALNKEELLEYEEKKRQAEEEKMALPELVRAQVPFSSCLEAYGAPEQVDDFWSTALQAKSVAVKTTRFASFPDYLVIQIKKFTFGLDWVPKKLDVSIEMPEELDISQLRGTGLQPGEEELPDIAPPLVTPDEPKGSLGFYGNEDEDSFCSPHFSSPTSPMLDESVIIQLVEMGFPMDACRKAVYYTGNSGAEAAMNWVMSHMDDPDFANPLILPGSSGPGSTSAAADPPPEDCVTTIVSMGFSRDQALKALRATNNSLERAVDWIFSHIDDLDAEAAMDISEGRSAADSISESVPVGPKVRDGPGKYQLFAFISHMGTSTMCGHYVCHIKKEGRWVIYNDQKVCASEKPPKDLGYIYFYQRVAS
UniProt P05161, residues 1-157: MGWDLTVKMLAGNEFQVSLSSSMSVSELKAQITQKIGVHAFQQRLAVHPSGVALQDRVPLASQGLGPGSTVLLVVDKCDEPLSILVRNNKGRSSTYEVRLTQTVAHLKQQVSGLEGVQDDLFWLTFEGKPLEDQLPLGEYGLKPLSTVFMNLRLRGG
UniProt Q64339, residues 1-155: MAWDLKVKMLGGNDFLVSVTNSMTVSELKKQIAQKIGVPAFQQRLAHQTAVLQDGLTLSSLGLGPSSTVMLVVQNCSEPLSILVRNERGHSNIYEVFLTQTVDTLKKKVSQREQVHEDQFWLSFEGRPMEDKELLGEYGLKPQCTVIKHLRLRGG

For 2 substances, binding results are on record in article PMC11754618.

Results are given in words; binding and its absence hold for the method and conditions named. Some results given as binding are weak or reduced against the parent protein; the word gives no strength. For some assays here: Sequences can lack the tags named with a protein.

Regarding “hISG15FL-based probe (from UniProt P05161 1-157)”, the binding result with USP5 (recombinant) is reported as “binds”. For mouse ISG15 (from UniProt Q64339 1-155), the binding result in test [1] is “binds”.
